# Measurements from the supplement of paper PMC8732350.
# Several values for one entry are separate records, joined by “and”; a condition that tells them apart may be missing. Equal entries are not always repeated. Structures can show the parent of a compound that is named as a salt. ± gives the standard deviation of the averaged measurements. This is one part of the list. Most values lie within the scatter of the assay; repeated measurements hardly agree.
# Tested on: A549
# Test: surface PD-L1 immunofluorescence intensity relative to IFN-gamma-only control (ratio); higher = more PD-L1 expression
# Settings: 10 µM; exposure time 24 h; IFN-gamma 100 ng/mL
row,Compound,surface PD-L1 immunofluorescence intensity
1,NC(=O)c1cccc(-c2cccc(OC(=O)NC3CCCCC3)c2)c1,0.981
2,CCCN(CCC)CCc1cccc2c1CC(=O)N2 [Ropinirole HCl],0.986
3,COc1ccc2cc([C@H](C)C(=O)O)ccc2c1 [Naproxen sodium],0.959
4,COc1ccc2cc([C@H](C)C(=O)O)ccc2c1 [Naproxen (Aleve)],1.08
5,COc1ccc2cc([C@H](C)C(=O)O)ccc2c1 [Naproxen],0.875
6,N#Cc1cc(CN2CCC(Nc3ncnc4sc(Cl)cc34)CC2)ccc1F,1.02
7,C[C@]12CCC(=O)C=C1[C@@H]1C[C@@H]1[C@H]1[C@@H]3[C@@H]4C[C@@H]4[C@@]4(CCC(=O)O4)[C@@]3(C)CC[C@@H]12 [Drospirenone],1.02
8,Nc1cc(N2CCCCC2)nc(N)[n+]1[O-] [Minoxidil],0.953 ± 0.097
9,CS(=O)(=O)Nc1c(O)ccc2c1CCCC2C1=NCCN1 (stereo unspecified),1.05
10,CCCCn1c(=O)c2[nH]c(C34CC5CC(CC3C5)C4)nc2n(CCCO)c1=O,1.1
11,CC(C)C[C@H](NC(=O)N1CCCCCC1)C(=O)N[C@H](Cc1cn(C)c2ccccc12)C(=O)N[C@H](Cc1ccccn1)C(=O)O,1.01
12,CC1=C(/C=C/C(C)=C/C=C/C(C)=C\CO)C(C)(C)CCC1 [13-cis-Retinol],0.996
13,OCCn1cc(-c2cnc3nnn(Cc4ccc5ncccc5c4)c3n2)cn1,0.988
14,CC1=C(/C=C/C(C)=C/C=C/C(C)=C/CO)C(C)(C)CCC1 [all-trans-Retinol],1
15,O=C(O)c1ccccc1OP(=O)(O)O [Fosfosal],0.966
16,C/C=C(/C(=C/C)c1ccc(O)cc1)c1ccc(O)cc1 [Dienestrol],0.886
17,Cc1ncc([N+](=O)[O-])n1CC(C)O (stereo unspecified) [Secnidazole],1.06
18,O=C(Nc1ccc(S(=O)(=O)Nc2ccccc2Cl)c(Cl)c1)c1ccccn1,0.979
19,Oc1ccc(-c2nc(-c3ccc(F)cc3)c(-c3ccncc3)[nH]2)cc1,1.14 and 1.01
20,CCC(NC(C)C)C(O)c1ccc(O)c2[nH]c(=O)ccc12 (stereo unspecified) [Procaterol hydrochloride],0.927
21,CCOc1cc(C(=O)Nc2ccc(Cl)c(-c3nc4ccccc4[nH]3)c2)cc(OCC)c1OCC,1.15

# In a second layout: results already given.
row	Compound	surface PD-L1 immunofluorescence intensity
7	C[C@]12CCC(=O)C=C1[C@@H]1C[C@@H]1[C@H]1[C@@H]3[C@@H]4C[C@@H]4[C@@]4(CCC(=O)O4)[C@@]3(C)CC[C@@H]12 [Drospirenone]	1.02
9	CS(=O)(=O)Nc1c(O)ccc2c1CCCC2C1=NCCN1 (stereo unspecified)	1.05
11	CC(C)C[C@H](NC(=O)N1CCCCCC1)C(=O)N[C@H](Cc1cn(C)c2ccccc12)C(=O)N[C@H](Cc1ccccn1)C(=O)O	1.01
17	Cc1ncc([N+](=O)[O-])n1CC(C)O (stereo unspecified) [Secnidazole]	1.06
20	CCC(NC(C)C)C(O)c1ccc(O)c2[nH]c(=O)ccc12 (stereo unspecified) [Procaterol hydrochloride]	0.927
21	CCOc1cc(C(=O)Nc2ccc(Cl)c(-c3nc4ccccc4[nH]3)c2)cc(OCC)c1OCC	1.15

# (listing goes on)

row,Compound,surface PD-L1 immunofluorescence intensity
1,CC1(C)S[C@@H]2[C@H](NC(=O)[C@H](N)c3ccccc3)C(=O)N2[C@H]1C(=O)O [Ampicillin trihydrate],0.908
2,CC1(C)S[C@@H]2[C@H](NC(=O)[C@H](N)c3ccccc3)C(=O)N2[C@H]1C(=O)O [Ampicillin sodium],0.961
3,C=C[C@H]1CN2CC[C@H]1C[C@H]2[C@H](O)c1ccnc2ccc(OC)cc12 [Quinine HCl 2H2O],1.04
4,O=c1n(CCCN2CCN(c3cccc(Cl)c3)CC2)nc2ccccn12 [Trazodone hydrochloride],0.903
5,O=C(O)c1cc(=O)[nH]c(=O)[nH]1 [Orotic acid (6-Carboxyuracil)],1.06
6,O=c1oc2cc(O)ccc2s1 [Tioxolone],0.92
7,COc1cc2ncnc(Nc3cccc(Cl)c3)c2cc1OC [AG-1478 (Tyrphostin AG-1478)],0.993
8,CCCCc1ccc2[nH]c(NC(=O)OC)nc2c1 [Parbendazole],0.999
9,Nc1ncnc2c1ncn2C1OC(COP(=O)(O)O)C(O)C1O (stereo unspecified) [Adenosine 5'-monophosphate monohydrate],1.13
10,COc1cc2ncnc(-n3nc(-c4ccccn4)nc3N)c2cc1OC,0.993
11,CCOC(=O)c1cnc2c(cnn2CC)c1NN=C(C)C [Etazolate hydrochloride],0.975
12,C[C@@H]1C[C@H]2[C@@H]3CCC4=CC(=O)C=C[C@]4(C)[C@@]3(Cl)[C@@H](O)C[C@]2(C)[C@@]1(OC(=O)c1ccco1)C(=O)CCl [Mometasone furoate],0.9 ± 0.041
13,CN1CCCN(C(c2ccccc2)c2ccc(Cl)cc2)CC1 (stereo unspecified) [Homochlorcyclizine dihydrochloride],0.92
14,O=C(O)[C@H](CC(=O)N1C[C@H]2CCCC[C@H]2C1)Cc1ccccc1 [Mitiglinide calcium],1.03
15,C[C@]12CCC3=C4CCC(=O)C=C4CC[C@H]3[C@@H]1CC[C@@]2(O)CC#N [Dienogest],1.03
16,O=C(O)c1ccccc1Nc1cccc2c1C(=O)c1cccc(Nc3ccccc3C(=O)O)c1C2=O,0.839
17,NC(=O)c1ccc(I)c([N+](=O)[O-])c1 [Iniparib (BSI-201)],1.06
18,O=C(O)c1cc(/N=N/c2ccc(S(=O)(=O)Nc3ccccn3)cc2)ccc1O [Sulfasalazine],1.05
19,C=C1c2cccc(O)c2C(O)=C2C(=O)[C@]3(O)C(O)=C(C(N)=O)C(=O)[C@@H](N(C)C)[C@@H]3[C@@H](O)[C@H]12 [Methacycline HCl (Physiomycine)],1.06
20,CC1CCN=C(N)S1 (stereo unspecified) [AMT hydrochloride],1.03
21,N#C/C(=C\c1ccc(O)c(O)c1)C(=O)NCCCc1ccccc1,0.989

row,Compound,surface PD-L1 immunofluorescence intensity
1,CN/C(=N\CCSCc1nc[nH]c1C)NC#N [Cimetidine],0.951 ± 0.08
2,CCc1cccc(CC)c1NC(=O)CN(CC(=O)O)CC(=O)O [Etifenin],1.05
3,C[C@@H](O[C@H]1OCCN(Cc2n[nH]c(=O)[nH]2)[C@H]1c1ccc(F)cc1)c1cc(C(F)(F)F)cc(C(F)(F)F)c1 [Aprepitant (MK-0869)],1.16
4,C[C@@H](O[C@H]1OCCN(Cc2n[nH]c(=O)[nH]2)[C@H]1c1ccc(F)cc1)c1cc(C(F)(F)F)cc(C(F)(F)F)c1 [Aprepitant],1.09
5,Cc1cn(-c2cc(NC(=O)c3ccc(C)c(Nc4nccc(-c5cccnc5)n4)c3)cc(C(F)(F)F)c2)cn1 [Nilotinib (AMN-107)],0.984
6,NC(=O)c1ccc(-c2nc(-c3ccccn3)c(-c3ccc4c(c3)OCO4)[nH]2)cc1,0.951
7,CCCNC(=O)Nc1ccc(Oc2ncnc3cc(OC)c(OC)cc23)cc1Cl,1.06
8,"O=C(O)c1cc(=O)c2c(Cl)cc(Cl)cc2[nH]1 [5,7-Dichlorokynurenic acid]",1.1
9,CN(C)C(=O)C(=O)c1cn(C)c2cc(Cl)c(C(=O)N3CCC(Cc4ccc(F)cc4)CC3)cc12,0.978
10,CCN1C[C@H](C)n2c(c(O)c3c(=O)n(Cc4ccc(F)c(Cl)c4)nc(C(=O)NC)c32)C1=O,1.09
11,CC(N)CCCC(C)(C)O (stereo unspecified) [Heptaminol hydrochloride],0.92
12,CCCCC[C@H](O)/C=C/[C@@H]1[C@H]2C/C(=C/CCCC(=O)O)C[C@H]2C[C@H]1O [Carbacyclin],0.977
13,CN1CCCN=C1/C=C/c1cccc(O)c1 [Oxantel pamoate],0.925
14,Cn1cc(/C=C2\C(=O)Nc3cccnc32)c2ccccc21,1.06
15,Cc1ccc(NC(=O)C2(c3ccc4c(c3)OC(F)(F)O4)CC2)nc1-c1cccc(C(=O)O)c1,1.08
16,"Cc1c(O)c(=O)n(-c2ccccc2)n1C [Antipyrine, 4-hydroxy]",0.817
17,O=S(=O)(O)Oc1ccc(C(c2ccc(OS(=O)(=O)O)cc2)c2ccccn2)cc1 [Sodium Picosulfate],0.981
18,CC=CC1=C(C(=O)O)N2C(=O)[C@@H](NC(=O)[C@H](N)c3ccc(O)cc3)[C@H]2SC1 [Cefprozil hydrate (Cefzil)],1.05
19,COc1cc2c(NC3CCN(C)CC3)nc(N3CCCN(C)CC3)nc2cc1OCCCN(C)C,1.02
20,NC(=O)CC[C@H](N)C(=O)O [L-Glutamine],0.934
21,Cc1cc2c(s1)Nc1ccccc1N=C2N1CCN(C)CC1 [Olanzapine],0.893

row,Compound,surface PD-L1 immunofluorescence intensity
1,Cc1cc(C(=O)O)sc1C(N)C(=O)O (stereo unspecified),1.05
2,CN1C(=O)C(Cc2c[nH]c3ccccc23)NC1=S (stereo unspecified) [Necrostatin-1],0.888
3,COC(=O)C(Cc1ccc(OCCn2c(=O)sc3cc(C(=O)c4ccccc4)ccc32)cc1)C(=O)OC,1.02
4,CCN(CC)CCOC(=O)c1ccc(N)cc1 [Procaine hydrochloride],0.815
5,CC1(c2ccccc2)OC(C(=O)O)=CC1=O (stereo unspecified) [Acifran],1.02
6,Clc1ccc(C(Cn2ccnc2)OCc2ccc(Sc3ccccc3)cc2)c(Cl)c1 (stereo unspecified) [Fenticonazole nitrate],1.27
7,CC[C@H](C)C(=O)O[C@H]1C[C@@H](C)C=C2C=C[C@H](C)[C@H](CC[C@@H]3C[C@@H](O)CC(=O)O3)[C@H]21 [Lovastatin (Mevacor)],1.09
8,CC[C@H](C)C(=O)O[C@H]1C[C@@H](C)C=C2C=C[C@H](C)[C@H](CC[C@@H]3C[C@@H](O)CC(=O)O3)[C@H]21 [Lovastatin],1.01 ± 0.058
9,Cc1c(C)c2c(c(C)c1O)CCC(C)(C(=O)O)O2 (stereo unspecified) [Trolox],0.939 ± 0.061
10,O=c1[nH]c2cc(C(F)(F)F)ccc2n1-c1cc(C(F)(F)F)ccc1O,1.03
11,COc1cc(C2Oc3cc([C@H]4Oc5cc(O)cc(O)c5C(=O)[C@@H]4O)ccc3OC2CO)ccc1O (stereo partly specified) [Silibinin (Silybin)],1.05
12,O=c1cc(-c2ccccc2)oc2cc(O)c(O)c(O)c12 [Baicalein],0.953 ± 0.053
13,CN(C)CCn1nnnc1SCC1=C(C(=O)O)N2C(=O)[C@@H](NC(=O)Cc3csc(N)n3)[C@H]2SC1 [Cefotiam hydrochloride],0.961
14,CC(=O)N[C@@H](CS)C(=O)O [N-Acetyl-Cysteine],0.968
15,CC(=O)N[C@@H](CS)C(=O)O [Acetylcysteine],0.994
16,"N[C@@H](Cc1cc(I)c(Oc2ccc(O)cc2)c(I)c1)C(=O)O [3,5-Diiodo-L-thyronine]",0.993
17,C[C@]1(c2nc3c(C(N)=O)cccc3[nH]2)CCCN1 [ABT-888 (Veliparib)],1.1
18,O=C(O)Cc1cccc(OCCCN(Cc2cccc(C(F)(F)F)c2Cl)CC(c2ccccc2)c2ccccc2)c1 [GW 3965 hydrochloride],1.01
